Record: PubChem BioAssay AID504804 (Drosophila RNAi Screening Center, 2011)
In all, the deposit lists about 19,000 reagents; this is a random part of those that have a named target and a result. Of all reagents, 47 (0.25%) got an active call. 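Signals are raw, not normalised; exact z-scores behind calls not deposited; actives needed confirmation, so some wells reaching 2 SD are inactive.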 The numbers tell different reagents against one gene apart. Names joined by + are all predicted targets of the reagent.

Test: 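Fly genes whose loss lessens doxorubicin-driven cell death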 (primary screen)
System: Drosophila Kc cells
Knock-down reagent: long dsRNA against Drosophila genes, 0.5 µg dsRNA per well
Duration: 96 h (48 h knock-down, then 48 h drug)
Challenge: doxorubicin 5 µg/ml for 48 h, added 48 h after dsRNA
Detection: 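Luminescent ATP counts per replicate, not normalised, reflecting viable cells after 48 h dsRNA knock-down followed by 48 h of 5 µg/ml doxorubicin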
Scale: raw ATP luminescence: higher = more viable cells, protection from doxorubicin
Rule for the call: 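Active when both duplicate wells lie at least 2 SD above the plate mean and protection is confirmed by rescreening and independent dsRNAs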

What did the screen give for CG12992?
raw ATP luminescence, replicate 1: 2.75e5; raw ATP luminescence, replicate 2: 2.81e5; call: inactive

What did the screen give for nej?
raw ATP luminescence, replicate 1: 96030; raw ATP luminescence, replicate 2: 85890; call: inactive

What is on record for RpLP0?
raw ATP luminescence, replicate 1: 51090; raw ATP luminescence, replicate 2: 41930; call: inactive

For sd, what does the deposit list?
raw ATP luminescence, replicate 1: 3.42e5; raw ATP luminescence, replicate 2: 3.72e5; call: inactive

For brm, what does the deposit list?
raw ATP luminescence, replicate 1: 71543; raw ATP luminescence, replicate 2: 58343; call: inactive

What is on record for CG14270?
raw ATP luminescence, replicate 1: 46010; raw ATP luminescence, replicate 2: 39030; call: inactive

For CG7183, how do the results read?
raw ATP luminescence, replicate 1: 38577; raw ATP luminescence, replicate 2: 34373; call: inactive

What did the screen give for CG9368?
raw ATP luminescence, replicate 1: 23873; raw ATP luminescence, replicate 2: 20667; call: inactive

With Dronc, what was measured?
SD above plate mean: at least 3 SD above plate mean; raw ATP luminescence, replicate 1: 98707; raw ATP luminescence, replicate 2: 1.00e5; call: active

For CG10336, what does the deposit list?
raw ATP luminescence, replicate 1: 79643; raw ATP luminescence, replicate 2: 71793; call: inactive

In a second layout: 5 of the entries above
Target gene,dsRNA no.,SD above plate mean,"raw ATP luminescence, replicate 1","raw ATP luminescence, replicate 2",call
sd,1,,3.42e5,3.72e5,inactive
brm,1,,71543,58343,inactive
CG14270,1,,46010,39030,inactive
CG7183,1,,38577,34373,inactive
CG9368,1,,23873,20667,inactive

Further records:
Which result is listed for ste24a?
raw ATP luminescence, replicate 1: 77717; raw ATP luminescence, replicate 2: 90930; call: inactive

For Aatf, what was measured?
raw ATP luminescence, replicate 1: 28210; raw ATP luminescence, replicate 2: 38287; call: inactive

With Argk2, how do the results read?
raw ATP luminescence, replicate 1: 73953; raw ATP luminescence, replicate 2: 89990; call: inactive

With CG6951, what was measured?
raw ATP luminescence, replicate 1: 71983; raw ATP luminescence, replicate 2: 65153; call: inactive

How did the screen score nompC?
raw ATP luminescence, replicate 1: 30307; raw ATP luminescence, replicate 2: 34400; call: inactive

Which result is listed for Tnks?
raw ATP luminescence, replicate 1: 60260; raw ATP luminescence, replicate 2: 62630; call: inactive

With CG13460, how do the results read?
raw ATP luminescence, replicate 1: 65813; raw ATP luminescence, replicate 2: 70210; call: inactive

With CG15629, what does the deposit list?
raw ATP luminescence, replicate 1: 38973; raw ATP luminescence, replicate 2: 36797; call: inactive

What did the screen give for CG1371?
raw ATP luminescence, replicate 1: 88853; raw ATP luminescence, replicate 2: 73260; call: inactive

What did the screen give for zye?
raw ATP luminescence, replicate 1: 77427; raw ATP luminescence, replicate 2: 70903; call: inactive

For CG2100, what was measured?
raw ATP luminescence, replicate 1: 80283; raw ATP luminescence, replicate 2: 31543; call: inactive

For CG11790, how do the results read?
raw ATP luminescence, replicate 1: 39667; raw ATP luminescence, replicate 2: 71710; call: inactive

For CG7059, what does the deposit list?
raw ATP luminescence, replicate 1: 69890; raw ATP luminescence, replicate 2: 47320; call: inactive

What is on record for Ddrgk1?
raw ATP luminescence, replicate 1: 40577; raw ATP luminescence, replicate 2: 33647; call: inactive

Which result is listed for CG7031?
raw ATP luminescence, replicate 1: 17110; raw ATP luminescence, replicate 2: 16790; call: inactive

With mei-217 + mei-218, what was measured?
raw ATP luminescence, replicate 1: 3.54e5; raw ATP luminescence, replicate 2: 3.16e5; call: inactive

With CG31156 #1, what does the deposit list?
raw ATP luminescence, replicate 1: 42893; raw ATP luminescence, replicate 2: 53543; call: inactive

For CG31156 #2, how do the results read?
raw ATP luminescence, replicate 1: 76260; raw ATP luminescence, replicate 2: 70870; call: inactive
